Measurements taken from US6939538B2, “Extended release analgesic for pain control” (Biomedical Research Models, Inc., priority 2002, dated 2005).

Columns and labels:
[1] = injected into rats; observation of rat mobility
[2] = background; mean/effective residence time; cited from earlier work

SMILES	Time duration of analgesic effects [1]	Residence time in the body [2]
CN1CC[C@]23c4c5ccc(O)c4O[C@H]2[C@@H](O)C=C[C@H]3[C@H]1C5.O=S(=O)(O)O [Aqueous Morphine, control, morphine sulfate]	2 h	–
CN1CC[C@]23c4c5ccc(O)c4O[C@H]2[C@@H](O)C=C[C@H]3[C@H]1C5 [morphine]	–	only a few hours
